These are yes or no findings as the source states them, for the method shown. Where a sequence is shown, tags or fusion partners need not be part of it.

For the assay, the target named is prolactin receptor antagonist PrlRA (human) (UniProt P01236). As to the kind of experiment: SEC; Superdex 75 increase 5/150 GL, PBS, 0.45 mL/min, native conditions; both purified. A general note: In gel filtration, larger molecules generally elute earlier.

B1: prolactin receptor antagonist PrlRA (ligand, human)
chain: MGSSRSQVTLRDLFDRAVVLSHYIHNLASEMFSEFDKRYTHGRGFITKAINSCHTSSLATPEDKEQALQMNQKDFLSLIVSILRSWNEPLYHLVTEVRGMQEAPEAILSKAVEIEEQTKRLLERMELIVSQVHPETKENEIYPVWSGLPSLQMADEESRLSAYYNLLHCLRRDSHKIDNYLKLLRCRIIHNNNC
Take B1: the binding entry was “no binding”.

The values are drawn from paper PMC6504076, “An in vivo half-life extended prolactin receptor antagonist can prevent STAT5 phosphorylation” (PLoS ONE, 2019).
